From PubChem BioAssay AID256 (DTP/NCI, 2004) come the findings set out here.

The list does not hold the whole screen: it gathers tests that were run many times, whatever their T/C, doses with no T/C, and many T/C values between a quarter and a half above the control. Other doses and runs of a compound stand elsewhere. T/C: endpoint of the treated group in % of that of the vehicle group. Some entries give survivors of the animals treated and no T/C: the source holds a T/C of zero for them, seemingly a mark for toxic or unscored doses. Counts of survivors are from the toxicity check (mostly the fifth day) where no day follows; animals may have died later. Schedule codes are those of the source, read here as Q, the interval in days (D) or hours (H), X, the number of doses.

The experiment concerns CD2F1 mice, L1210 leukemia ip, survival T/C. The experiment is described as follows: NCI In Vivo Anticancer Drug Screen. Data for tumor model L1210 Leukemia (intraperitoneal) in CD2F1 (CDF1) mice. Conditions: T/C endpoint: mean survival time; dose: 200.0 mg/kg/injection; schedule: Q01DX005 (ip); vehicle: other; higher T/C = longer survival. Summed up:
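Antitumor effect is scored in animals hosting a serially transplanted tumor. Values compare compound-dosed animals against vehicle-only controls as a simple quotient.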

Turning to `[CH3][Sn]1([CH3])[O]C2C(CO)OC(n3cnc4c(=O)[nH]c(N)nc43)C2[O]1` (stereo unspecified), the survivor count was 0 of 6.
